Measurements published in article PMC6918085.
No constants are given. Whether binding was seen depends on the method and setting. In cells and extracts the contact can be indirect. Some results given as binding are weak or reduced against the parent protein; the word gives no strength. Tags and fused reporters may be left off the sequences shown.

Chains of the proteins cited; added tags and fusions are not shown. Residues count along the entry.
UniProt P71451, residues 35-297: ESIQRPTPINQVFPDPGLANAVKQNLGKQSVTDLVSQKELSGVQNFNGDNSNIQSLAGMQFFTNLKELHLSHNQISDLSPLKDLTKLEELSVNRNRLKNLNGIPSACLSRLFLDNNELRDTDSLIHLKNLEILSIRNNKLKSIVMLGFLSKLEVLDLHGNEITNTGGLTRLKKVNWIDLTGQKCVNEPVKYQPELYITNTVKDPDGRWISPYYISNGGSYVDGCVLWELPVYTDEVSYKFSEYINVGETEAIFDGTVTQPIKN
UniProt P30153: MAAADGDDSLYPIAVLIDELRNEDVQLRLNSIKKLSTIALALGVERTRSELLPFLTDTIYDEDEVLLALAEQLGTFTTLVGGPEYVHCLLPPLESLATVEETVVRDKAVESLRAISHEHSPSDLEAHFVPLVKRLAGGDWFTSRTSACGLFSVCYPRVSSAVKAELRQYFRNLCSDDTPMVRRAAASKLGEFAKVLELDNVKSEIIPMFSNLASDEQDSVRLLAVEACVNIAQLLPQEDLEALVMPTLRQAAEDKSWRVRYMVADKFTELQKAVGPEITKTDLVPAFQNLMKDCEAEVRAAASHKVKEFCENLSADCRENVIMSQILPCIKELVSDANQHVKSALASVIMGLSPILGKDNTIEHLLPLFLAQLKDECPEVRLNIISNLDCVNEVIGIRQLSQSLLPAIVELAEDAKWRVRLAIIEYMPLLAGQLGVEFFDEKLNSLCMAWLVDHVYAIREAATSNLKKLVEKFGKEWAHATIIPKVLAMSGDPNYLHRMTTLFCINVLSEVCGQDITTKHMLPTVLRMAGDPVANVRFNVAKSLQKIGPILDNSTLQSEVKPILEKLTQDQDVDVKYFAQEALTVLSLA
UniProt Q9BYV6: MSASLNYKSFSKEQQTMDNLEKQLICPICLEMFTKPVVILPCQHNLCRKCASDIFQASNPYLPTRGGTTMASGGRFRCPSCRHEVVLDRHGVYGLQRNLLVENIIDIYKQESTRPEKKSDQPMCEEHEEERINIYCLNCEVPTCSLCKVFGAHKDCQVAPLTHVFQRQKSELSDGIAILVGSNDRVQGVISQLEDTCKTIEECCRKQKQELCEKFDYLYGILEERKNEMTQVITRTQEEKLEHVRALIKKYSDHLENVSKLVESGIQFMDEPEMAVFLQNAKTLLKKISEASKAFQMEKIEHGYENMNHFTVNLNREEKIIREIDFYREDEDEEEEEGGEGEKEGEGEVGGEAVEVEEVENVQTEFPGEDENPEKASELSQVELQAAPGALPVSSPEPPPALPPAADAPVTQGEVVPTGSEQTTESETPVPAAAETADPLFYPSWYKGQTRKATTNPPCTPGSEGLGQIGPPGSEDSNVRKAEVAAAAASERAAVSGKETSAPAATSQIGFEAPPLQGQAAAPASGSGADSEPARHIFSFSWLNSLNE
UniProt Q93034: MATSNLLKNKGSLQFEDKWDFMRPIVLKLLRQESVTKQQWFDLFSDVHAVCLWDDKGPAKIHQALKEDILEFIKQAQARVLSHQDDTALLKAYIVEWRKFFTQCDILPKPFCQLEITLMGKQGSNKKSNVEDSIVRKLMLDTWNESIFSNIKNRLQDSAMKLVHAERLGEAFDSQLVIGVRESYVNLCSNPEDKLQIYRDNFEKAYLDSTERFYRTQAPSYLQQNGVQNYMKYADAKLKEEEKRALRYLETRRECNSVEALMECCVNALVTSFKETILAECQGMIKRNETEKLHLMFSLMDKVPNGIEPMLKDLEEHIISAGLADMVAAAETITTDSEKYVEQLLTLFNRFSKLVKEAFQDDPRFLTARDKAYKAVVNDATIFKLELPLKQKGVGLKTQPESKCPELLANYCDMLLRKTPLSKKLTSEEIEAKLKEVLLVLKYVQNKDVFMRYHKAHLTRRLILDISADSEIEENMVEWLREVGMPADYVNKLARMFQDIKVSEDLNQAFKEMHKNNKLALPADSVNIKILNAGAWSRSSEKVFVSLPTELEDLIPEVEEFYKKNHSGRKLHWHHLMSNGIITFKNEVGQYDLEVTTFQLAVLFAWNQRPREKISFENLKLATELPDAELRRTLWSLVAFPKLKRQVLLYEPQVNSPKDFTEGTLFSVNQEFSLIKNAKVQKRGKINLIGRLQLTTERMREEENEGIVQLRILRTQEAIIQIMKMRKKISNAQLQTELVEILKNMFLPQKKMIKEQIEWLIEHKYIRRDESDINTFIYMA

B1: PPP2R2A fused to the Nlc1 fragment of NanoLuc (protein, UniProt P63151 1-447)
chain: MAGAGGGNDIQWCFSQVKGAVDDDVAEADIISTVEFNHSGELLATGDKGGRVVIFQQEQENKIQSHSRGEYNVYSTFQSHEPEFDYLKSLEIEEKINKIRWLPQKNAAQFLLSTNDKTIKLWKISERDKRPEGYNLKEEDGRYRDPTTVTTLRVPVFRPMDLMVEASPRRIFANAHTYHINSISINSDYETYLSADDLRINLWHLEITDRSFNIVDIKPANMEELTEVITAAEFHPNSCNTFVYSSSKGTIRLCDMRASALCDRHSKLFEEPEDPSNRSFFSEIISSISDVKFSHSGRYMMTRDYLSVKIWDLNMENRPVETYQVHEYLRSKLCSLYENDCIFDKFECCWNGSDSVVMTGSYNNFFRMFDRNTKRDITLEASRENNKPRTVLKPRKVCASGKRKKDEISVDSLDFNKKILHTAWHPKENIIAVATTNNLYIFQDKVN
B2: HA-tagged S100A9 (protein, UniProt P06702 1-114)
chain: MTCKMSQLERNIETIINTFHQYSVKLGHPDTLNQGEFKELVRKDLQNFLKKENKNEKVIEHIMEDLDTNADKQLSFEEFIMLMARLTWASHEKMHEGDEGPGHHHKPGLGEGTP

Columns and labels:
[1] = target: InlC fused to the Nlc2 fragment of NanoLuc (Listeria monocytogenes) (UniProt P71451); experiment: split reporter; NPCA screen in HEK-293T cells: 67 human ORFs fused to Nlc1 (pSNL-N1) against InlC, InlC-K^all or InlC-K^224 fused to Nlc2 (pSNL-C2); luciferase activity 24 h after transfection
[2] = target: humanized FLAG-tagged InlC (Listeria monocytogenes) (UniProt P71451); experiment: co-IP; HeLa cells cotransfected with FLAG-tagged InlC forms and HA-tagged S100A9; FLAG lysis buffer (20 mM Tris-HCl pH 8.0, 1% Triton, 150 mM NaCl); anti-FLAG magnetic beads overnight at 4°C; eluted with 3x FLAG peptide; blot with anti-InlC and anti-HA

| Molecule | binding [1] | binding [2] |
| --- | --- | --- |
| PPP2R1A fused to the Nlc1 fragment of NanoLuc (from UniProt P30153 1-589) | binds | – |
| TRIM55 fused to the Nlc1 fragment of NanoLuc (from UniProt Q9BYV6 1-548) | binds | – |
| cullin-5 fused to the Nlc1 fragment of NanoLuc (from UniProt Q93034 1-780) | binds | – |
| B1 | binds | – |
| B2 | – | binds |
